From PubChem BioAssay AID2685 (National Center for Advancing Translational Sciences (NCATS), 2010)
This is one part of the list. These are further read-outs of the screen, such as a control signal, another cell line or another target. No call is given for them. The list favours compounds with an active or inconclusive main result. Words in brackets tell the shape of the fitted curve; partial curves, single points and poor fits give uncertain potencies.

Experiment: qHTS Assay for Lipid Storage Modulators in Drosophila S3 Cells;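 as to cell number change: cells counted by Cell Tracker Red CMTPX staining in the red channel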
Settings: BODIPY lipid droplet fluorescence, 18-24 h; for cell number change: measured here: cell count max response, cells fed with added oleic acid
How it was run: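 Laser-scanning cytometry quantifies lipid droplet accumulation (500–530 nm total intensity; droplet/cell object ratio) in oleic acid-fed (400 uM added) Drosophila S3 cells treated with a concentration series. 20 uM Triacsin C defined 100% inhibition.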

[1] = measured here: lipid fluorescence (Fed channel) AC50, cells fed with added oleic acid
[2] = measured here: cell number channel AC50, cells fed with added oleic acid

| SMILES | cell number change | AC50 [1] | AC50 [2] |
| --- | --- | --- | --- |
| CCCNC(=S)NC1CCCC1 | 24.5% | 1.64 µM [falling, partial curve, poor fit] |  |
| O=C(COc1ccc(Cl)cc1Cl)NCCCCc1ccccc1 | -41.6% | 29.1 µM [falling, single point] | 20.6 µM [falling, single point] |
| Cc1ccc(-n2nc3c(=O)n(C(C)C(=O)NCc4ccccc4Cl)nc(C)c3c2C)cc1 (configuration not stated) | -19.1% | 29.1 µM [falling, single point] |  |
| COc1ccc(CCNC(=O)c2ccccc2NS(=O)(=O)c2cc(C(=O)O)ccc2OC)cc1 | 1.32% |  | 1.16 µM [falling, full curve, poor fit] |
| COc1cc(CN2CCCCC2)ccc1OCc1ccccc1 | 7.41% | 0.13 µM [falling, full curve, poor fit] |  |
| Cc1ccc(-n2cccn2)c(CN2CCC(CO)(CCc3ccccc3)CC2)c1 | 0.176% |  |  |
| Oc1ccccc1C1OCC2(CO1)COC(c1ccccc1O)OC2 (configuration not stated) | -27.2% | 6.51 µM [rising, partial curve] | 2.06 µM [rising, partial curve, poor fit] |
| Cc1cccn2c(=O)c(/C=C(\C#N)S(=O)(=O)c3ccc(Cl)cc3)c(N3CCC(C(N)=O)CC3)nc12 | 3.23% |  |  |
| CN(C)/C=C(\C#N)S(=O)(=O)c1ccccc1 | -22.9% | 6.31 µM [falling, single point] |  |
| O=C(C1CCN(S(=O)(=O)N2CCC3(CC2)OCCO3)CC1)N1CCc2ccccc2C1 | 143% | 6.51 µM [falling, single point] | 6.51 µM [falling, single point] |
| CC1c2ccsc2CCN1S(=O)(=O)c1ccccc1 (configuration not stated) |  | 1.84 µM [falling, partial curve] |  |
| Cn1nc(C(=O)NCC(=O)Nc2ccc(F)c(F)c2F)c2ccccc2c1=O | 36.8% | 25.9 µM [rising, single point] | 29.1 µM [rising, single point] |
| O=Cc1ccc(OCc2ccc3c(c2)OCO3)cc1 | 19.9% | 18.4 µM [rising, single point] |  |
| Cc1ccc(NC(=O)CN(C)C(=O)c2ccc3[nH]c4c(c3c2)CC(C)CC4)cc1 (configuration not stated) | 18.5% | 0.092 µM [rising, full curve, poor fit] |  |
| Cc1ccc2c(c1)N(CC(=O)N1CCCC1)C(=O)c1cccnc1O2 | 5.61% | 10.3 µM [falling, partial curve] |  |
| CCOC(=O)C1=C(COC(=O)c2ccccc2OC)NC(=O)NC1C (configuration not stated) |  | 0.0058 µM [rising, full curve, poor fit] |  |
| C[C@@H](C(=O)NCc1ccc(S(C)(=O)=O)cc1)[C@H]1C[C@]1(C)[C@H](NC(=O)OCc1ccccc1)c1ccccc1 |  | 2.91 µM [rising, partial curve] |  |
| CO/N=C(/C)CCS(=O)(=O)c1ccccc1 | -7.17% |  |  |
| C=CCn1c(SCC(N)=O)nc2nc3c(cc2c1=O)COC(C)(C)C3 | -0.351% |  | 6.51 µM [rising, single point] |

| SMILES | cell number change | AC50 [1] | AC50 [2] |
| --- | --- | --- | --- |
| COC(=O)/C=c1\sc2ncnn2c1=O | -46.2% | 4.61 µM [falling, full curve] | 0.58 µM [falling, full curve] |
| Cc1ccc2[nH]c(=O)c(COC(=O)c3cccs3)cc2c1 |  |  | 2.59 µM [falling, partial curve] |
| COCCCn1c(SCc2nnc(-c3ccc(OC)c(OC)c3)o2)nc2ccccc2c1=O | 1.92% | 0.82 µM [rising, full curve, poor fit] |  |
| CN(CCC#N)C(=O)CSc1nnc(-c2ccco2)n1N | -22.7% | 1.46 µM [falling, full curve, poor fit] |  |
| CCOC(=O)Cc1cc(=O)n2[nH]cc(-c3cccc(Br)c3)c2n1 | 15.8% |  |  |
| COc1ccccc1OCCC(=O)OCCN1C(=O)c2ccccc2C1=O | -5.05% |  | 0.00517 µM [falling, full curve, poor fit] |
| Cn1c(SCc2ccccc2Br)nc2ccccc2c1=O | 4.67% | 3.66 µM [rising, full curve] |  |
| COc1ccc(NC(=O)c2ccc(-c3ccc(C(C)=O)cc3)o2)cn1 | -14.9% | 29.1 µM [rising, single point] |  |
| CCOc1ccc(CCNC(=O)CN2C(=O)NC3(CCCCCC3)C2=O)cc1OCC | -54.5% | 1.84 µM [falling, full curve, poor fit] | 6.51 µM [falling, partial curve] |
| CN(C)C(=S)Nc1cccc(-c2n[nH]c(=S)o2)c1 | -49.5% |  | 29.1 µM [falling, single point] |
| CC(=O)Nc1nc(-c2cccc3ccccc23)cs1 | 22.8% | 0.116 µM [rising, full curve, poor fit] |  |
| CCC(C)NC(=O)[C@H](CSCc1ccccc1)N1Cc2ccccc2C1=O (some centres not stated) | 18.7% | 0.13 µM [falling, full curve, poor fit] |  |
| CSCCC(NS(=O)(=O)c1cccc(C(F)(F)F)c1)C(=O)N(C)Cc1ccc2c(c1)OCCO2 (configuration not stated) | -34.7% | 5.8 µM [falling, full curve, poor fit] |  |
| Cc1ccccc1CNC(=O)c1ccc2nc(N3CCOCC3)sc2c1 | 12.6% |  |  |
| c1ccc2nc3c(nc2c1)c1ccccc1n3CCN1CCOCC1 |  | 0.461 µM [rising, partial curve, poor fit] |  |
| CN(C(=O)c1ccccn1)C1(C(=O)NC2CCCCC2)CCCCC1 | 0.992% | 0.231 µM [falling, full curve] |  |
| CCOc1ccc2nc(SCC(=O)N(CC(C)C)c3c(N)n(Cc4ccccc4)c(=O)[nH]c3=O)[nH]c2c1 | 25.4% | 0.58 µM [rising, full curve, poor fit] |  |
| Cc1ccc(C)c(OCc2cc(C(=O)N3CCc4sccc4C3)no2)c1 | -36.1% | 5.8 µM [falling, full curve] |  |
| CCOC(=O)CCNC(=O)N1CCCC(CNS(=O)(=O)Cc2ccccc2)C1 (configuration not stated) | -24.1% | 29.1 µM [falling, single point] |  |

Looked up above.
AC50 [1], COC(=O)/C=c1\sc2ncnn2c1=O is entered as 4.61 µM [falling, full curve]
AC50 [2], CN(C)C(=S)Nc1cccc(-c2n[nH]c(=S)o2)c1 is entered as 29.1 µM [falling, single point]
